# Laboratory results reported in the supplement of paper PMC11732987, “Enantioselective OTUD7B fragment discovery through chemoproteomics screening and high-throughput optimisation” (Communications Chemistry, 2025).
# Sequences of proteins named here, by UniProt entry; tags and fusion partners are left off. A change or cut given only in a name is not applied to a line headed by its entry. Residues count along the entry.
# UniProt Q8N5P1: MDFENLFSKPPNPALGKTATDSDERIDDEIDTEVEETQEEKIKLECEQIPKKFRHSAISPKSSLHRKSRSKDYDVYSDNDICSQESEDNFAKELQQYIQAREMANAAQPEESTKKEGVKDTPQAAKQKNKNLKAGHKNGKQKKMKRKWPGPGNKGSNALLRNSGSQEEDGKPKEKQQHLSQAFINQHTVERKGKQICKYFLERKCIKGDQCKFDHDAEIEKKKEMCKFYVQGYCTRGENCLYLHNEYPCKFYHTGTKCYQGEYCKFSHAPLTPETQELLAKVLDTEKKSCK
# UniProt Q9UBW7: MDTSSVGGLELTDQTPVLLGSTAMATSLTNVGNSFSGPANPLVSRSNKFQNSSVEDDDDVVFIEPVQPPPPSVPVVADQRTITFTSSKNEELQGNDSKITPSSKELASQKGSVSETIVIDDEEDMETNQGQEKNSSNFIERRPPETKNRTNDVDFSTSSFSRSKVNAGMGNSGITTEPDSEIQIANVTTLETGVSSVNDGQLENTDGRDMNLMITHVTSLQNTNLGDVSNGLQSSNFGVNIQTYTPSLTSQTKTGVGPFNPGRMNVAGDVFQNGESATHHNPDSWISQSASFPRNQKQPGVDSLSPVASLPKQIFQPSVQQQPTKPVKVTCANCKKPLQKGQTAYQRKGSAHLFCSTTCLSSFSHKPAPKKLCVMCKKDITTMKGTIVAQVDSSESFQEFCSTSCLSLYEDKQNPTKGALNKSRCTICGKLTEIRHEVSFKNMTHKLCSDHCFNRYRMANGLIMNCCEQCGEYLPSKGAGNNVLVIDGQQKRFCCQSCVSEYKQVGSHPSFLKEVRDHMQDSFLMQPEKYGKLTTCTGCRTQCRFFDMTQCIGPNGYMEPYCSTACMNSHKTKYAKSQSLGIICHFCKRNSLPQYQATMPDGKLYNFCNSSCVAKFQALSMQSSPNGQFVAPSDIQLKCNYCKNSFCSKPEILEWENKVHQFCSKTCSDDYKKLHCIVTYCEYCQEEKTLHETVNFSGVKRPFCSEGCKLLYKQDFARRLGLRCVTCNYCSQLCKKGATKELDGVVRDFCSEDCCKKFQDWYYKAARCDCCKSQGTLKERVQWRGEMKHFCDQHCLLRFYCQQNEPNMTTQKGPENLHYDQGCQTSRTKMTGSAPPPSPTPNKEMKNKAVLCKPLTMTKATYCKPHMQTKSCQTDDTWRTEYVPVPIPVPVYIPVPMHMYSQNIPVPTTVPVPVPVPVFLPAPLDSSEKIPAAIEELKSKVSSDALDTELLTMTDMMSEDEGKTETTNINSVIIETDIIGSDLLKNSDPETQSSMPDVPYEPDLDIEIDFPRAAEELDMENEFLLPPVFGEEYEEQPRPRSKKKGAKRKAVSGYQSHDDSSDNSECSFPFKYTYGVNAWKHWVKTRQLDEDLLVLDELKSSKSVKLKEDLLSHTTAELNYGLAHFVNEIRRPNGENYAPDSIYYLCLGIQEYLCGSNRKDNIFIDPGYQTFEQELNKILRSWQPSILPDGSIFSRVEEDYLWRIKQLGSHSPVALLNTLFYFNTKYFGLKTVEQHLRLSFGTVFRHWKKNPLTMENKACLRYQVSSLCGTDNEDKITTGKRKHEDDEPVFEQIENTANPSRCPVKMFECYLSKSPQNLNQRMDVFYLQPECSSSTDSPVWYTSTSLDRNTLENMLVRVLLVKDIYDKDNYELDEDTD
# UniProt Q9H8U3: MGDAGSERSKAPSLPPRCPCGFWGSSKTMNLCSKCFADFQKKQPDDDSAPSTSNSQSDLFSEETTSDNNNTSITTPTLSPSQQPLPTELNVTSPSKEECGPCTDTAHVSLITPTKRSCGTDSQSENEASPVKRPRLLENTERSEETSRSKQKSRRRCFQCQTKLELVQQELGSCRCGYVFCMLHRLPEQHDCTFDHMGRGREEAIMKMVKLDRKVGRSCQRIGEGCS
# UniProt P59923: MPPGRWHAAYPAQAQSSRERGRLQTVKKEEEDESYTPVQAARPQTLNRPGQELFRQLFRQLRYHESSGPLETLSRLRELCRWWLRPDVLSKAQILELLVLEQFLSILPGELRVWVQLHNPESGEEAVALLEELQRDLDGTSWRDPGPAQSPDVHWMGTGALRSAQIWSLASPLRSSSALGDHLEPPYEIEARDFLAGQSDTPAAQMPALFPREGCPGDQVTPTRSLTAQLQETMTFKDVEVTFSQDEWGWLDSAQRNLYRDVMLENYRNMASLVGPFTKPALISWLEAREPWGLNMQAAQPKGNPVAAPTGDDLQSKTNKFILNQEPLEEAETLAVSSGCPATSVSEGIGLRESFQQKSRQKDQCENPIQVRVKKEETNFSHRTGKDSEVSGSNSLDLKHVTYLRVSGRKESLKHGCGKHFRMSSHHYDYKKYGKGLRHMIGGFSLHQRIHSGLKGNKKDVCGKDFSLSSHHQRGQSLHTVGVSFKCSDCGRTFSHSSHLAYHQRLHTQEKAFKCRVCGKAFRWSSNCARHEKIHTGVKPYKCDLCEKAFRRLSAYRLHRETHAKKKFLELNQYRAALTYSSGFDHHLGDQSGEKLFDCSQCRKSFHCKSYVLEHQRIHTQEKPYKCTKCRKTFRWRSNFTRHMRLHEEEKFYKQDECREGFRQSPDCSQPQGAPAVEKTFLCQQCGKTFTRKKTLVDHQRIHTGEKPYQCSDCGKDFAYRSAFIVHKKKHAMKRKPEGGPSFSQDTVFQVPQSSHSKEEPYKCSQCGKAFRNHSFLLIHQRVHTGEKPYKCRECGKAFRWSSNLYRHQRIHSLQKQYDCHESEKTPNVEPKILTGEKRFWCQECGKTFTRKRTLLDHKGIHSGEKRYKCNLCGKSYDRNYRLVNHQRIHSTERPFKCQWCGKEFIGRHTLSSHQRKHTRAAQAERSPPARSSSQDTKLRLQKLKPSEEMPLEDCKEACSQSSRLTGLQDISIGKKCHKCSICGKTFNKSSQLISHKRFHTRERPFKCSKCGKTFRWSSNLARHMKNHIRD
# UniProt Q8N1G0: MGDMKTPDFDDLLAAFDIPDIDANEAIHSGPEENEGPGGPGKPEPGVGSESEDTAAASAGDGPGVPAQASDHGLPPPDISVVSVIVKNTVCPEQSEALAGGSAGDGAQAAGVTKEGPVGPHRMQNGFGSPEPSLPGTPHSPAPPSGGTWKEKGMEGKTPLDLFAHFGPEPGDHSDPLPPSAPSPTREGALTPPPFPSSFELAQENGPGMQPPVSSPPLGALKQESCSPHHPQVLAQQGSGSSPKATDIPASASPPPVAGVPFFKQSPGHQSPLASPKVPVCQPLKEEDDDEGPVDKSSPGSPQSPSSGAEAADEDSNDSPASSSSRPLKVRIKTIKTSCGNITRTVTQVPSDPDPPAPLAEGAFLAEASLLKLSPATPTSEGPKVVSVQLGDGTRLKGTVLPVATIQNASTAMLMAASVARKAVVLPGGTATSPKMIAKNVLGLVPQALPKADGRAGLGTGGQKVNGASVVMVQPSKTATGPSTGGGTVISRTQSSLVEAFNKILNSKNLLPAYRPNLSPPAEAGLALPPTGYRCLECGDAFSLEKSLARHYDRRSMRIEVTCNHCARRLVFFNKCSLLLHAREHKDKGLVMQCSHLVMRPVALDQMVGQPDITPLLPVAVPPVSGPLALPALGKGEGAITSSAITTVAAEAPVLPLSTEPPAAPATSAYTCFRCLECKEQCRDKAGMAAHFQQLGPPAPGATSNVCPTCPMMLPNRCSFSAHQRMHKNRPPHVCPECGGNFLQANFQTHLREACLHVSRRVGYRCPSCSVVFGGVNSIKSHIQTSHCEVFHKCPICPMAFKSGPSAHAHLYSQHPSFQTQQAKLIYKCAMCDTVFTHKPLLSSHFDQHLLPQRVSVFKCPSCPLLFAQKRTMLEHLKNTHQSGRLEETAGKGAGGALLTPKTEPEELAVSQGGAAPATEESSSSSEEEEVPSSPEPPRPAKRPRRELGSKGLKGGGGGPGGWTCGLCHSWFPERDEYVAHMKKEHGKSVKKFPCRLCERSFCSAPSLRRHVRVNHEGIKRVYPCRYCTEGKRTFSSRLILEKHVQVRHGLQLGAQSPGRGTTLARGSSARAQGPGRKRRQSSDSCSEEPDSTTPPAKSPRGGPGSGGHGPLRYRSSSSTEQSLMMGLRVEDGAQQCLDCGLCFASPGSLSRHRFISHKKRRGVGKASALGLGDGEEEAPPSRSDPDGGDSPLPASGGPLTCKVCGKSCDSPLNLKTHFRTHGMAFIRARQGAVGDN
# UniProt Q96KM6: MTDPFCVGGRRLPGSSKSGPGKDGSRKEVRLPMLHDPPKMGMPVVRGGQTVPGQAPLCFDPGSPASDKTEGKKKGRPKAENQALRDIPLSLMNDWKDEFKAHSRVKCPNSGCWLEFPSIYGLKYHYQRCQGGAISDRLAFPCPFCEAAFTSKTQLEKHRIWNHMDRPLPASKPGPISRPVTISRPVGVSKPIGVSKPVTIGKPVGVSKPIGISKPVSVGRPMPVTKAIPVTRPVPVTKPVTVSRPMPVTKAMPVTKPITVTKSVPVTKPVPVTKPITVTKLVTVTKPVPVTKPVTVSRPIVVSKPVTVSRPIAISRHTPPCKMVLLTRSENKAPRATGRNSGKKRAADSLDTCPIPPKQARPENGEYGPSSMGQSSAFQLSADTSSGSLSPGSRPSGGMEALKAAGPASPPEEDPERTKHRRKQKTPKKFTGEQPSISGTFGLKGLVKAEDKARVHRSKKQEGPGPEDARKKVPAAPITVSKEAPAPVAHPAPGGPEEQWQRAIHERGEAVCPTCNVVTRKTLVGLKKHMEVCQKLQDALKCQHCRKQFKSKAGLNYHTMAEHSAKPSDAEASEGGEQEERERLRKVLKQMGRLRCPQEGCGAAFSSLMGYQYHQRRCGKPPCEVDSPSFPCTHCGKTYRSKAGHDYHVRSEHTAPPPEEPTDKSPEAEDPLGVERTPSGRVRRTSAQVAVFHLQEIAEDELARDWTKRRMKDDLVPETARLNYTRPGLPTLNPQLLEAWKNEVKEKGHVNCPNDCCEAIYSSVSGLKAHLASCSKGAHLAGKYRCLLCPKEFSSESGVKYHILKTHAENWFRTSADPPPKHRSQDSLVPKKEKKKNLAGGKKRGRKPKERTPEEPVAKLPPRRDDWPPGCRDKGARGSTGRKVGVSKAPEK
# UniProt Q8NDX6: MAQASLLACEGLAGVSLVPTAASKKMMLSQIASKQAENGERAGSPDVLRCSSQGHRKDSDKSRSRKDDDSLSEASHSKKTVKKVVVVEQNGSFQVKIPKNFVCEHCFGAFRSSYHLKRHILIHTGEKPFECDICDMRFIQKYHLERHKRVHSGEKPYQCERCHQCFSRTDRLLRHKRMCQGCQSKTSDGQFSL
# UniProt Q14966, 669-695: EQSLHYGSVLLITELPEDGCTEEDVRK
# UniProt Q15776: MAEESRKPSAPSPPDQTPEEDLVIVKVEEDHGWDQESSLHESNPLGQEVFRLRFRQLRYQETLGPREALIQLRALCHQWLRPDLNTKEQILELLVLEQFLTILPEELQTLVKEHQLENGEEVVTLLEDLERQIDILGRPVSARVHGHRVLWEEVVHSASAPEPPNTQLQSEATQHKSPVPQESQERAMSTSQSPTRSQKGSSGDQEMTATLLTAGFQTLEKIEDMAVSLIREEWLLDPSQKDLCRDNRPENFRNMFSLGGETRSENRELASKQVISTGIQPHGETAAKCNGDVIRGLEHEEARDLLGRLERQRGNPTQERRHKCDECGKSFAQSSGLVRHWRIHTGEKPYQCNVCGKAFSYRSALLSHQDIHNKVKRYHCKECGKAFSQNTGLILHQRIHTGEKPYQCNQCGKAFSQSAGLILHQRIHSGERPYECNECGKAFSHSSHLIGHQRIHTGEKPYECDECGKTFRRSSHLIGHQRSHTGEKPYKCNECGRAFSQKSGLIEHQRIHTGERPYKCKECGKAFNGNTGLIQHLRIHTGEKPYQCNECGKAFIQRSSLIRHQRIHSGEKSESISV
# UniProt Q6FIF0: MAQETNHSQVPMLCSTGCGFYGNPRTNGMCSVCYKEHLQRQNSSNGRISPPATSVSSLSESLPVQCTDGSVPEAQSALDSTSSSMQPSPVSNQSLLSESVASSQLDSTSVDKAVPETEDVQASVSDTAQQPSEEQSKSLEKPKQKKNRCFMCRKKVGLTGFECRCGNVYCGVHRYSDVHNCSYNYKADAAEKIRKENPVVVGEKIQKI
# UniProt O76080: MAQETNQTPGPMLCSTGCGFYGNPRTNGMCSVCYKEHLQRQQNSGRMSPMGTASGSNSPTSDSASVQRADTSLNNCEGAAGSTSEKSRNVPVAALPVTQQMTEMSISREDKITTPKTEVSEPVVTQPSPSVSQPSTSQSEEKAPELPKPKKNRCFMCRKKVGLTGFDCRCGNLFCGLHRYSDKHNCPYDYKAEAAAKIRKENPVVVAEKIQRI
# UniProt O43264, 668-687: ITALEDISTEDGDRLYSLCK
# UniProt Q96H79: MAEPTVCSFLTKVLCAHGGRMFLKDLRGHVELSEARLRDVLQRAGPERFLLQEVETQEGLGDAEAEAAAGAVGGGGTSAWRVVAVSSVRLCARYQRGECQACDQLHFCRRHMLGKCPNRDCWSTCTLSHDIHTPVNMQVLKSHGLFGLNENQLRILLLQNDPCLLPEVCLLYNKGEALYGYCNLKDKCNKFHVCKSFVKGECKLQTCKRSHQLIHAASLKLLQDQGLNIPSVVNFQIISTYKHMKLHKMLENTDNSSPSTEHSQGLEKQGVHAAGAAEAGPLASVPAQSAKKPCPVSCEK
# The other results are listed elsewhere or left out. The data scatter; read single values as rough.
# Assays:
# [1] = compound: ClCC(=O)N[C@@H]1CCCc2ccccc12; assay: log2 mean competition ratio of IA-DTB cysteine labelling (DMSO/compound) (log2 ratio); higher = stronger cysteine engagement by compound; settings: treatment time: 4 h, cell line lysate: HEK293T
# Protocol: (§1)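 IA-DTB competitive cysteine chemoproteomics in HEK293T RIPA lysate. Lysates were treated with compound 29 or 30 at 50 or 200 µM for 4 h, then IA-DTB (500 µM, 1 h), trypsin-digested, NeutrAvidin-enriched and analysed by diaPASEF. Competition ratio = intensity DMSO / intensity compound (n=4 treated, n=64 DMSO); binding: mean log2 CR ≥ 1 and p ≤ 0.05 plus QC filters. Target is the cysteine site.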
# [2] = compound: ClCC(=O)N[C@H]1CCCc2ccccc12; assay: as above; settings: treatment time: 4 h, cell line lysate: HEK293T
# Protocol: as §1
target,measurement,setting,value
ZNF318 C158 (UniProt Q5VUA4),log2 mean competition ratio,[1]; 50 µM,-0.178
same,log2 mean competition ratio,[1]; 200 µM,0.176
same,log2 mean competition ratio,[2]; 50 µM,-0.553
same,log2 mean competition ratio,[2]; 200 µM,0.00486
ZNF503 C286,log2 mean competition ratio,[1]; 50 µM,-0.23
same,log2 mean competition ratio,[1]; 200 µM,0.16
same,log2 mean competition ratio,[2]; 50 µM,-0.216
same,log2 mean competition ratio,[2]; 200 µM,0.293
ZGPAT C180 (UniProt Q8N5A5),log2 mean competition ratio,[1]; 50 µM,0.312
same,log2 mean competition ratio,[1]; 200 µM,0.128
same,log2 mean competition ratio,[2]; 50 µM,-0.265
same,log2 mean competition ratio,[2]; 200 µM,0.257
ZC3H8 C46 (UniProt Q8N5P1),log2 mean competition ratio,[1]; 50 µM,0.0147
same,log2 mean competition ratio,[1]; 200 µM,0.404
same,log2 mean competition ratio,[2]; 50 µM,-0.444
same,log2 mean competition ratio,[2]; 200 µM,0.139
ZNF7 C452,log2 mean competition ratio,[1]; 50 µM,0.0213
same,log2 mean competition ratio,[1]; 200 µM,-0.0441
same,log2 mean competition ratio,[2]; 50 µM,-0.126
same,log2 mean competition ratio,[2]; 200 µM,0.493
ZFP64 C267 (UniProt Q9NTW7),log2 mean competition ratio,[1]; 50 µM,-0.0101
same,log2 mean competition ratio,[1]; 200 µM,0.0223
same,log2 mean competition ratio,[2]; 50 µM,-0.337
same,log2 mean competition ratio,[2]; 200 µM,-0.134
ZNF598 C835 (UniProt Q86UK7),log2 mean competition ratio,[1]; 50 µM,-0.365
same,log2 mean competition ratio,[1]; 200 µM,0.283
same,log2 mean competition ratio,[2]; 50 µM,0.357
same,log2 mean competition ratio,[2]; 200 µM,0.481
ZNF512 C540 (UniProt Q96ME7),log2 mean competition ratio,[1]; 50 µM,-0.228
same,log2 mean competition ratio,[1]; 200 µM,-0.0905
same,log2 mean competition ratio,[2]; 50 µM,-0.19
same,log2 mean competition ratio,[2]; 200 µM,0.00276
ZNF829 C252,log2 mean competition ratio,[1]; 50 µM,-0.0388
same,log2 mean competition ratio,[1]; 200 µM,0.321
same,log2 mean competition ratio,[2]; 50 µM,-0.114
same,log2 mean competition ratio,[2]; 200 µM,-0.233
ZMYM2 C823 (UniProt Q9UBW7),log2 mean competition ratio,[1]; 50 µM,0.0791
same,log2 mean competition ratio,[1]; 200 µM,-0.029
same,log2 mean competition ratio,[2]; 50 µM,-0.232
same,log2 mean competition ratio,[2]; 200 µM,-0.0314
ZEB2 C140 (UniProt O60315),log2 mean competition ratio,[1]; 50 µM,-0.0652
same,log2 mean competition ratio,[1]; 200 µM,-0.284
same,log2 mean competition ratio,[2]; 50 µM,-0.164
same,log2 mean competition ratio,[2]; 200 µM,-0.283
ZFAND3 C35 (UniProt Q9H8U3),log2 mean competition ratio,[1]; 50 µM,-0.0604
same,log2 mean competition ratio,[1]; 200 µM,-0.0308
same,log2 mean competition ratio,[2]; 50 µM,0.062
same,log2 mean competition ratio,[2]; 200 µM,0.0777
ZFP62 C43,log2 mean competition ratio,[1]; 50 µM,0.0799
same,log2 mean competition ratio,[1]; 200 µM,-0.127
same,log2 mean competition ratio,[2]; 50 µM,-0.182
same,log2 mean competition ratio,[2]; 200 µM,-0.0299
ZC3HC1 C406 (UniProt Q86WB0),log2 mean competition ratio,[1]; 50 µM,0.15
same,log2 mean competition ratio,[1]; 200 µM,0.0935
same,log2 mean competition ratio,[2]; 50 µM,-0.0472
same,log2 mean competition ratio,[2]; 200 µM,0.16
ZNF445 C365 (UniProt P59923),log2 mean competition ratio,[1]; 50 µM,-0.0953
same,log2 mean competition ratio,[1]; 200 µM,0.266
same,log2 mean competition ratio,[2]; 50 µM,-0.718
same,log2 mean competition ratio,[2]; 200 µM,0.246
ZNF709 C198(C394)(C450)(C506)(C534)(C562),log2 mean competition ratio,[1]; 50 µM,-0.11
same,log2 mean competition ratio,[1]; 200 µM,0.264
same,log2 mean competition ratio,[2]; 50 µM,0.0412
same,log2 mean competition ratio,[2]; 200 µM,0.173
ZNF687 C339 (UniProt Q8N1G0),log2 mean competition ratio,[1]; 50 µM,-0.0127
same,log2 mean competition ratio,[1]; 200 µM,0.0091
same,log2 mean competition ratio,[2]; 50 µM,0.0471
same,log2 mean competition ratio,[2]; 200 µM,-0.00403
ZDBF2 C1597,log2 mean competition ratio,[1]; 50 µM,0.034
same,log2 mean competition ratio,[1]; 200 µM,0.292
same,log2 mean competition ratio,[2]; 50 µM,0.0294
same,log2 mean competition ratio,[2]; 200 µM,0.165
ZNF512B C353 (UniProt Q96KM6),log2 mean competition ratio,[1]; 50 µM,-0.00924
same,log2 mean competition ratio,[1]; 200 µM,-0.186
same,log2 mean competition ratio,[2]; 50 µM,0.131
same,log2 mean competition ratio,[2]; 200 µM,0.16
ZNF280C C734 (UniProt Q8ND82),log2 mean competition ratio,[1]; 50 µM,-0.0675
same,log2 mean competition ratio,[1]; 200 µM,0.0832
same,log2 mean competition ratio,[2]; 50 µM,-0.143
same,log2 mean competition ratio,[2]; 200 µM,0.0282
ZNF516 C1016 (UniProt Q92618),log2 mean competition ratio,[1]; 50 µM,0.0662
same,log2 mean competition ratio,[1]; 200 µM,0.0563
same,log2 mean competition ratio,[2]; 50 µM,0.354
same,log2 mean competition ratio,[2]; 200 µM,-0.0754
ZNF740 C159 (UniProt Q8NDX6),log2 mean competition ratio,[1]; 50 µM,0.339
same,log2 mean competition ratio,[1]; 200 µM,-0.145
same,log2 mean competition ratio,[2]; 50 µM,0.379
same,log2 mean competition ratio,[2]; 200 µM,-0.787
ZDBF2 C410,log2 mean competition ratio,[1]; 50 µM,-0.275
same,log2 mean competition ratio,[1]; 200 µM,0.149
same,log2 mean competition ratio,[2]; 50 µM,0.224
same,log2 mean competition ratio,[2]; 200 µM,0.0373
ZNF638 C879 (UniProt Q14966),log2 mean competition ratio,[1]; 50 µM,-0.145
same,log2 mean competition ratio,[1]; 200 µM,0.297
same,log2 mean competition ratio,[2]; 50 µM,0.102
same,log2 mean competition ratio,[2]; 200 µM,0.161
ZKSCAN8 C289 (UniProt Q15776),log2 mean competition ratio,[1]; 50 µM,0.00234
same,log2 mean competition ratio,[1]; 200 µM,0.131
same,log2 mean competition ratio,[2]; 50 µM,-0.147
same,log2 mean competition ratio,[2]; 200 µM,0.0398
ZFAND6 C181 (UniProt Q6FIF0),log2 mean competition ratio,[1]; 50 µM,0.445
same,log2 mean competition ratio,[1]; 200 µM,0.133
same,log2 mean competition ratio,[2]; 50 µM,0.278
same,log2 mean competition ratio,[2]; 200 µM,-0.0874
ZNF432 C150,log2 mean competition ratio,[1]; 50 µM,-0.166
same,log2 mean competition ratio,[1]; 200 µM,0.0622
same,log2 mean competition ratio,[2]; 50 µM,-0.206
same,log2 mean competition ratio,[2]; 200 µM,-0.0858
ZNF609 C1120 (UniProt O15014),log2 mean competition ratio,[1]; 50 µM,-0.333
same,log2 mean competition ratio,[1]; 200 µM,0.0416
same,log2 mean competition ratio,[2]; 50 µM,-0.239
same,log2 mean competition ratio,[2]; 200 µM,0.0468
ZFAND5 C76 (UniProt O76080),log2 mean competition ratio,[1]; 50 µM,-0.106
same,log2 mean competition ratio,[1]; 200 µM,-0.0589
same,log2 mean competition ratio,[2]; 50 µM,-0.206
same,log2 mean competition ratio,[2]; 200 µM,-0.0152
ZMYM4 C1368 (UniProt Q5VZL5),log2 mean competition ratio,[1]; 50 µM,-0.009
same,log2 mean competition ratio,[1]; 200 µM,0.207
same,log2 mean competition ratio,[2]; 50 µM,-0.663
same,log2 mean competition ratio,[2]; 200 µM,0.181
ZGPAT C377 (UniProt Q8N5A5),log2 mean competition ratio,[1]; 50 µM,0.275
same,log2 mean competition ratio,[1]; 200 µM,-0.0583
same,log2 mean competition ratio,[2]; 50 µM,-0.313
same,log2 mean competition ratio,[2]; 200 µM,0.125
ZNF687 C1003 (UniProt Q8N1G0),log2 mean competition ratio,[1]; 50 µM,0.397
same,log2 mean competition ratio,[1]; 200 µM,0.198
same,log2 mean competition ratio,[2]; 50 µM,0.406
same,log2 mean competition ratio,[2]; 200 µM,0.132
ZW10 C686 (UniProt O43264),log2 mean competition ratio,[1]; 50 µM,0.041
same,log2 mean competition ratio,[1]; 200 µM,0.079
same,log2 mean competition ratio,[2]; 50 µM,0.169
same,log2 mean competition ratio,[2]; 200 µM,-0.0956
ZGRF1 C1374 (UniProt Q86YA3),log2 mean competition ratio,[1]; 50 µM,-0.213
same,log2 mean competition ratio,[1]; 200 µM,-0.095
same,log2 mean competition ratio,[2]; 50 µM,-0.192
same,log2 mean competition ratio,[2]; 200 µM,-0.0778
ZZEF1 C2553 (UniProt O43149),log2 mean competition ratio,[1]; 50 µM,-0.00439
same,log2 mean competition ratio,[1]; 200 µM,0.0652
same,log2 mean competition ratio,[2]; 50 µM,-0.106
same,log2 mean competition ratio,[2]; 200 µM,0.0453
ZNF318 C2040 (UniProt Q5VUA4),log2 mean competition ratio,[1]; 50 µM,-0.198
same,log2 mean competition ratio,[1]; 200 µM,-0.091
same,log2 mean competition ratio,[2]; 50 µM,0.144
same,log2 mean competition ratio,[2]; 200 µM,0.086
ZDHHC20 C131 (UniProt Q5W0Z9),log2 mean competition ratio,[1]; 50 µM,0.0966
same,log2 mean competition ratio,[1]; 200 µM,-0.185
same,log2 mean competition ratio,[2]; 50 µM,-0.0298
same,log2 mean competition ratio,[2]; 200 µM,-0.0467
ZC3HAV1L C202 (UniProt Q96H79),log2 mean competition ratio,[1]; 50 µM,-0.219
same,log2 mean competition ratio,[1]; 200 µM,0.0969
same,log2 mean competition ratio,[2]; 50 µM,-0.0806
same,log2 mean competition ratio,[2]; 200 µM,0.00219
ZMYM1 C662 (UniProt Q5SVZ6),log2 mean competition ratio,[1]; 50 µM,-0.105
same,log2 mean competition ratio,[1]; 200 µM,-0.128
same,log2 mean competition ratio,[2]; 50 µM,-0.11
same,log2 mean competition ratio,[2]; 200 µM,-0.0116
ZMYM3 C557 (UniProt Q14202),log2 mean competition ratio,[1]; 50 µM,-0.00174
same,log2 mean competition ratio,[1]; 200 µM,-0.131
same,log2 mean competition ratio,[2]; 50 µM,0.145
same,log2 mean competition ratio,[2]; 200 µM,-0.176
ZMYM2 C667 (UniProt Q9UBW7),log2 mean competition ratio,[1]; 50 µM,-0.252
same,log2 mean competition ratio,[1]; 200 µM,0.247
same,log2 mean competition ratio,[2]; 50 µM,-0.159
same,log2 mean competition ratio,[2]; 200 µM,-0.0841
ZNF638 C688 (UniProt Q14966),log2 mean competition ratio,[1]; 50 µM,0.0982
same,log2 mean competition ratio,[1]; 200 µM,-0.185
same,log2 mean competition ratio,[2]; 50 µM,0.385
same,log2 mean competition ratio,[2]; 200 µM,-0.441

# Nothing new here: entries from further up.
target,measurement,setting,value
ZC3H8 C46 (UniProt Q8N5P1),log2 mean competition ratio,[1]; 50 µM,0.0147
same,log2 mean competition ratio,[1]; 200 µM,0.404
same,log2 mean competition ratio,[2]; 50 µM,-0.444
same,log2 mean competition ratio,[2]; 200 µM,0.139
ZNF7 C452,log2 mean competition ratio,[1]; 50 µM,0.0213
same,log2 mean competition ratio,[1]; 200 µM,-0.0441
same,log2 mean competition ratio,[2]; 50 µM,-0.126
same,log2 mean competition ratio,[2]; 200 µM,0.493
ZFP64 C267 (UniProt Q9NTW7),log2 mean competition ratio,[1]; 50 µM,-0.0101
same,log2 mean competition ratio,[1]; 200 µM,0.0223
same,log2 mean competition ratio,[2]; 50 µM,-0.337
same,log2 mean competition ratio,[2]; 200 µM,-0.134
ZNF598 C835 (UniProt Q86UK7),log2 mean competition ratio,[1]; 50 µM,-0.365
same,log2 mean competition ratio,[1]; 200 µM,0.283
same,log2 mean competition ratio,[2]; 50 µM,0.357
same,log2 mean competition ratio,[2]; 200 µM,0.481
ZNF512 C540 (UniProt Q96ME7),log2 mean competition ratio,[1]; 50 µM,-0.228
same,log2 mean competition ratio,[1]; 200 µM,-0.0905
same,log2 mean competition ratio,[2]; 50 µM,-0.19
same,log2 mean competition ratio,[2]; 200 µM,0.00276
ZNF829 C252,log2 mean competition ratio,[1]; 50 µM,-0.0388
same,log2 mean competition ratio,[1]; 200 µM,0.321
same,log2 mean competition ratio,[2]; 50 µM,-0.114
same,log2 mean competition ratio,[2]; 200 µM,-0.233
ZMYM2 C823 (UniProt Q9UBW7),log2 mean competition ratio,[1]; 50 µM,0.0791
same,log2 mean competition ratio,[1]; 200 µM,-0.029
same,log2 mean competition ratio,[2]; 50 µM,-0.232
same,log2 mean competition ratio,[2]; 200 µM,-0.0314
ZEB2 C140 (UniProt O60315),log2 mean competition ratio,[1]; 50 µM,-0.0652
same,log2 mean competition ratio,[1]; 200 µM,-0.284
